Test results as given in article PMC12229022.
Results are given in words; binding and its absence hold for the method and conditions named. In cells and extracts the contact can be indirect. Some entries that bind do so weakly or less than the wild type. For some assays here: Where a sequence is shown, tags or fusion partners need not be part of it.

Protein sequences, listed by entry. Tags and fused reporters are not part of them.
UniProt Q96LD4: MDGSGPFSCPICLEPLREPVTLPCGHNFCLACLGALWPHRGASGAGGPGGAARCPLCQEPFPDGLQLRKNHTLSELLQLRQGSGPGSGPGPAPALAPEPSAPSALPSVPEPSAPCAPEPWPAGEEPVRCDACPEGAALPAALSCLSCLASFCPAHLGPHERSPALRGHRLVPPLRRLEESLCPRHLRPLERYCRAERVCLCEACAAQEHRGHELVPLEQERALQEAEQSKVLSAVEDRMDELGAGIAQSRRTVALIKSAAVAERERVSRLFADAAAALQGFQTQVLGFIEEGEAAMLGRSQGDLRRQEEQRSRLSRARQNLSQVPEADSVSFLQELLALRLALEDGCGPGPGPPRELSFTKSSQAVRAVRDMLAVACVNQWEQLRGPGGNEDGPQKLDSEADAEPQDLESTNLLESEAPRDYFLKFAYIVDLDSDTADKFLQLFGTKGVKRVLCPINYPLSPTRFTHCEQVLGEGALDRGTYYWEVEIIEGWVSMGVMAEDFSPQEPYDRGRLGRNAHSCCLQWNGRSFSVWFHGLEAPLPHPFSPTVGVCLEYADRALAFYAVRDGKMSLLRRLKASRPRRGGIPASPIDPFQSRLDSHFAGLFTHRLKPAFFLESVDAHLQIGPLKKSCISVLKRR
UniProt P49841: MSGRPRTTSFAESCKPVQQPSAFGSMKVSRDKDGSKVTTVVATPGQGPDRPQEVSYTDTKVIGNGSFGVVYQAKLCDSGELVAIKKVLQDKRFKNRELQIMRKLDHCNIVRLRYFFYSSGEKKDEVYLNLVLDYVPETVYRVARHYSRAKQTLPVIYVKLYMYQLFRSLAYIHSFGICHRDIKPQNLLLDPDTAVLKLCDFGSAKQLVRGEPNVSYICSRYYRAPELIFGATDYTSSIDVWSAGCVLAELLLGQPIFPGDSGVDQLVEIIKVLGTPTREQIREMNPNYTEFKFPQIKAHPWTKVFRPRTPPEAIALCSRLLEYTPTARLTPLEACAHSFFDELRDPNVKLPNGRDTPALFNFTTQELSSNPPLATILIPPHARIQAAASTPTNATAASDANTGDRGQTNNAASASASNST

Key:
[1] = target: Tripartite motif 47 (TRIM47), endogenous (human (endogenous in THJ-29 T and FTD-133)) (UniProt Q96LD4); experiment: co-IP; immunoprecipitation, cells and tags not stated (Fig. 6B, E, F); for TRIM47 with ADAR also with the GSK-3β inhibitor CHIR99021 or with Myc-GSK-3β
[2] = target: T1, Adenosine deaminase acting on RNA (ADAR), endogenous (human (endogenous in THJ-29 T and FTD-133)) (UniProt P55265); experiment: as above
T1 sequence: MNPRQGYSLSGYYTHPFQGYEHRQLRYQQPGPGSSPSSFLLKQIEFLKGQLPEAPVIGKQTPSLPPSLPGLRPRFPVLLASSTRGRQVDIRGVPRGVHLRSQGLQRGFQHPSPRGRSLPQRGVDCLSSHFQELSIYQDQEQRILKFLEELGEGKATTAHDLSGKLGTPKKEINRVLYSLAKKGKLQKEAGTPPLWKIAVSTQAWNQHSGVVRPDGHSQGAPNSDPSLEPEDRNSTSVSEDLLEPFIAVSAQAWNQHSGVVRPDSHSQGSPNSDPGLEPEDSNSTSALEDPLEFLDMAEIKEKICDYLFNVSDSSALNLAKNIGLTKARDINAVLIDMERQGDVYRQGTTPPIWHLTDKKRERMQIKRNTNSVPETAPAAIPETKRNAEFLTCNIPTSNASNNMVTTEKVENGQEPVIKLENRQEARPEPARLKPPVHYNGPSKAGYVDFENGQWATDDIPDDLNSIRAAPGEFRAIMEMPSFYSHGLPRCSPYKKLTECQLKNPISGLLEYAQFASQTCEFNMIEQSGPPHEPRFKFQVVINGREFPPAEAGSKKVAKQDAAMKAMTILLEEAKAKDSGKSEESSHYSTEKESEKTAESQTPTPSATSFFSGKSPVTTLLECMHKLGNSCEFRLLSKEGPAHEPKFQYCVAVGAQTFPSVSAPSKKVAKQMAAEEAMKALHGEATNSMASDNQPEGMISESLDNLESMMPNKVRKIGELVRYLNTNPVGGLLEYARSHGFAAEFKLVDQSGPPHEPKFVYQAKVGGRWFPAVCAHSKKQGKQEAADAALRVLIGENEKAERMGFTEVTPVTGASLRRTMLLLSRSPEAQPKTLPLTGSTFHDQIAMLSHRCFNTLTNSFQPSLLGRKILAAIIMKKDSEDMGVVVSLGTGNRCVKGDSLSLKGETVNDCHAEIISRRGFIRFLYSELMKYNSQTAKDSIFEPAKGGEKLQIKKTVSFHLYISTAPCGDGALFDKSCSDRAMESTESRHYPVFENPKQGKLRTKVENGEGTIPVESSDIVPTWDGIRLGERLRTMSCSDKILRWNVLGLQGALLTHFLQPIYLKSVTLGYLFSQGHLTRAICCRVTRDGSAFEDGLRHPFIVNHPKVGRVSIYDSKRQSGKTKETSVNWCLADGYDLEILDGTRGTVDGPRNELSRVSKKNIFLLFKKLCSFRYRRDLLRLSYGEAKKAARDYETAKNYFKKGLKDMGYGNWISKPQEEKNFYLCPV

[3] = target: Tripartite motif 47 (TRIM47), endogenous (human (endogenous in THJ-29 T and FTD-133)) (UniProt Q96LD4); experiment: co-IP; endogenous TRIM47 and ADAR in THJ-29 T and FTD-133 cells; each precipitated in turn and blotted with antibodies against TRIM47 and ADAR; Co-IP kit (Thermo Fisher), antibody cross-linked to protein A/G agarose
Flag-TRIM47 = Flag-TRIM47 (UniProt Q96LD4); experiment: co-IP; HA-ADAR and Flag-TRIM47 overexpressed in HEK293T cells

binding [2]	Molecule	binding [1]	binding [3]	binding (Flag-TRIM47)
binds	Glycogen synthase kinase-3β (GSK-3β) (from UniProt P49841 1-420)	binds	–	–
–	Adenosine deaminase acting on RNA (ADAR), endogenous (protein, UniProt P55265 1-1226) MNPRQGYSLSGYYTHPFQGYEHRQLRYQQPGPGSSPSSFLLKQIEFLKGQLPEAPVIGKQTPSLPPSLPGLRPRFPVLLASSTRGRQVDIRGVPRGVHLRSQGLQRGFQHPSPRGRSLPQRGVDCLSSHFQELSIYQDQEQRILKFLEELGEGKATTAHDLSGKLGTPKKEINRVLYSLAKKGKLQKEAGTPPLWKIAVSTQAWNQHSGVVRPDGHSQGAPNSDPSLEPEDRNSTSVSEDLLEPFIAVSAQAWNQHSGVVRPDSHSQGSPNSDPGLEPEDSNSTSALEDPLEFLDMAEIKEKICDYLFNVSDSSALNLAKNIGLTKARDINAVLIDMERQGDVYRQGTTPPIWHLTDKKRERMQIKRNTNSVPETAPAAIPETKRNAEFLTCNIPTSNASNNMVTTEKVENGQEPVIKLENRQEARPEPARLKPPVHYNGPSKAGYVDFENGQWATDDIPDDLNSIRAAPGEFRAIMEMPSFYSHGLPRCSPYKKLTECQLKNPISGLLEYAQFASQTCEFNMIEQSGPPHEPRFKFQVVINGREFPPAEAGSKKVAKQDAAMKAMTILLEEAKAKDSGKSEESSHYSTEKESEKTAESQTPTPSATSFFSGKSPVTTLLECMHKLGNSCEFRLLSKEGPAHEPKFQYCVAVGAQTFPSVSAPSKKVAKQMAAEEAMKALHGEATNSMASDNQPEGMISESLDNLESMMPNKVRKIGELVRYLNTNPVGGLLEYARSHGFAAEFKLVDQSGPPHEPKFVYQAKVGGRWFPAVCAHSKKQGKQEAADAALRVLIGENEKAERMGFTEVTPVTGASLRRTMLLLSRSPEAQPKTLPLTGSTFHDQIAMLSHRCFNTLTNSFQPSLLGRKILAAIIMKKDSEDMGVVVSLGTGNRCVKGDSLSLKGETVNDCHAEIISRRGFIRFLYSELMKYNSQTAKDSIFEPAKGGEKLQIKKTVSFHLYISTAPCGDGALFDKSCSDRAMESTESRHYPVFENPKQGKLRTKVENGEGTIPVESSDIVPTWDGIRLGERLRTMSCSDKILRWNVLGLQGALLTHFLQPIYLKSVTLGYLFSQGHLTRAICCRVTRDGSAFEDGLRHPFIVNHPKVGRVSIYDSKRQSGKTKETSVNWCLADGYDLEILDGTRGTVDGPRNELSRVSKKNIFLLFKKLCSFRYRRDLLRLSYGEAKKAARDYETAKNYFKKGLKDMGYGNWISKPQEEKNFYLCPV	binds	binds	–
–	HA-ADAR (protein, UniProt P55265 1-1226) MNPRQGYSLSGYYTHPFQGYEHRQLRYQQPGPGSSPSSFLLKQIEFLKGQLPEAPVIGKQTPSLPPSLPGLRPRFPVLLASSTRGRQVDIRGVPRGVHLRSQGLQRGFQHPSPRGRSLPQRGVDCLSSHFQELSIYQDQEQRILKFLEELGEGKATTAHDLSGKLGTPKKEINRVLYSLAKKGKLQKEAGTPPLWKIAVSTQAWNQHSGVVRPDGHSQGAPNSDPSLEPEDRNSTSVSEDLLEPFIAVSAQAWNQHSGVVRPDSHSQGSPNSDPGLEPEDSNSTSALEDPLEFLDMAEIKEKICDYLFNVSDSSALNLAKNIGLTKARDINAVLIDMERQGDVYRQGTTPPIWHLTDKKRERMQIKRNTNSVPETAPAAIPETKRNAEFLTCNIPTSNASNNMVTTEKVENGQEPVIKLENRQEARPEPARLKPPVHYNGPSKAGYVDFENGQWATDDIPDDLNSIRAAPGEFRAIMEMPSFYSHGLPRCSPYKKLTECQLKNPISGLLEYAQFASQTCEFNMIEQSGPPHEPRFKFQVVINGREFPPAEAGSKKVAKQDAAMKAMTILLEEAKAKDSGKSEESSHYSTEKESEKTAESQTPTPSATSFFSGKSPVTTLLECMHKLGNSCEFRLLSKEGPAHEPKFQYCVAVGAQTFPSVSAPSKKVAKQMAAEEAMKALHGEATNSMASDNQPEGMISESLDNLESMMPNKVRKIGELVRYLNTNPVGGLLEYARSHGFAAEFKLVDQSGPPHEPKFVYQAKVGGRWFPAVCAHSKKQGKQEAADAALRVLIGENEKAERMGFTEVTPVTGASLRRTMLLLSRSPEAQPKTLPLTGSTFHDQIAMLSHRCFNTLTNSFQPSLLGRKILAAIIMKKDSEDMGVVVSLGTGNRCVKGDSLSLKGETVNDCHAEIISRRGFIRFLYSELMKYNSQTAKDSIFEPAKGGEKLQIKKTVSFHLYISTAPCGDGALFDKSCSDRAMESTESRHYPVFENPKQGKLRTKVENGEGTIPVESSDIVPTWDGIRLGERLRTMSCSDKILRWNVLGLQGALLTHFLQPIYLKSVTLGYLFSQGHLTRAICCRVTRDGSAFEDGLRHPFIVNHPKVGRVSIYDSKRQSGKTKETSVNWCLADGYDLEILDGTRGTVDGPRNELSRVSKKNIFLLFKKLCSFRYRRDLLRLSYGEAKKAARDYETAKNYFKKGLKDMGYGNWISKPQEEKNFYLCPV	–	–	binds
